Measurements as given in US4232040A, “Compositions for and a method of preventing diabetic complications” (Syntex (U.S.A.) Inc., priority 1978, dated 1980).
The name of at least one read-out is uncertain.

Biological target: T1, Aldose reductase (Oryctolagus cuniculus, UniProt P15122)
T1 construct: Aldose reductase is isolated by homogenizing the lens in 3 volumes of water; from tissue; host or cells: lens of mature New Zealand rabbits
Assay: Aldose reductase inhibition in vitro (rabbit lens enzyme, glyceraldehyde substrate, loss of absorbance at 340 millimicrons)
Format: biochemical, New Zealand rabbit
Settings: Table II; molar concentration of xanthone compound 1 × 10^4 (so in the source); relative to non-inhibited control (0%)
Description: In brief, a solution of the enzyme is added to an appropriately buffered solution containing glyceraldehyde. The loss of ultra violet absorbance at 340 millimicrons is indicative of the rate of reaction of the aldehyde with the enzyme as previously reported by Hayman and Kinoshita, (J. Biol. Chem: 240, 877, (1965)).
Fifty lenses are obtained from mature, New Zealand, rabbits and are immediately frozen on dry ice. Aldose reductase is isolated by homogenizing the lens in 3 volumes of water for 30 seconds in a Waring blender followed by centrifugation at 10,000 xg for 15 minutes to remove insoluble material. Saturated ammonium sulfate is added to the supernatant fluid to 40% saturation. The suspension is centrifuged after 15 minutes, and the supernatant liquid recovered. Additional protein is removed by increasing the ammonium sulfate concentration to 50%, and centrifuging the mixture. […] The precipitated enzyme is assayed by following the ultraviolet absorbance at 340 millimicrons after dissolving the enzyme in 0.05 M sodium chloride. […] The reaction is started by the addition of substrate (glyceraldehyde) to the contents of the cuvette and is followed by the determination of loss of absorbance at 340 millimicrons for 2 minutes at 37° C. […]

Structure (SMILES): CCC(=O)c1ccc2oc3ccc(C(=O)O)cc3c(=O)c2c1 [CH3 CH2 H]
- % Inhibition: 63%
